The list shows a part of the results.
B1: il10ra_site1_normal_mot_812af5c65f29141b25d3ed263bec1fb2_0001_1_000000083_0001_36_50_H_._HHH_b2_06063_0001_0000200012_0000002_0_af2pred_0001 (protein)
chain: SSSSSDEELREEVEELLEKAKEIDDPREAAEVLLRAAELAWELGDPELMELVIEVARKLKSSSSS
B2: il10ra_site1_sap_28_mot_HHH_b1_01779_000000096_0001_43_57_H_._HHH_b2_04259_0002_0000600031_0000001_0_0001 (protein)
chain: SSSSSNTERAVRRLFKAIEEIDDERYLRLALKFIKALAEAANDEEAQKLVEELEELLRERSSSSS
B3: il10ra_site1_normal_mot_HHH_b1_00682_000000211_0001_1_20_H_._HHH_b2_01840_0001_0000100011_0000002_0_af2pred_0001 (protein)
chain: SSSSDVEERVEELLEQARELREKGNPEEAFKALKEALELASEVNDPELQRLVLEVAQELFSSSSS
B4: il10ra_site1_normal_mot_HHH_b1_03333_000000091_0001_1_17_H_._HHH_b2_00363_0001_0000100021_0000001_0 (protein)
chain: SSSSDLYEEVKEVIERAVELLREGNPEEAHRLLEELEEKLEELGNFAALFSVRHLARVVGSSSSS
B5: il10ra_site1_sap_16_mot_HHH_b1_04771_000000013_0001_40_56_H_._HHH_b2_05569_0001_0000300029_0000001_0_0001 (protein)
chain: SSSSDEEEEELRELVEEVEELIKRNDEERALRVAMKALQLAFQASDPEVLKALWELNKKISSSSS
B6: il10ra_site1_sap_17_mot_HHH_b2_07579_000000275_0001_1_19_H_._HHH_b1_07926_0001_0000100009_0000002_0_0001 (protein)
chain: SSSSDEEEVKELLEEAEKAREEGDPELVLRLLMEALRIAIQANNPELLRAIWRVLHELASSSSSS
B7: il10ra_site1_normal_mot_HHH_b1_06994_000000193_0001_40_55_H_._HHH_b2_04520_0001_0000200019_0000001_0 (protein)
chain: SSSSTLEELLRALLRLIEQAIKYGDEKSARRLLEAARRVAEILGDEEVEERLEELKKELESSSSS
B8: il10ra_site1_normal_mot_8756ee2cf497b5429c717dfc0c0bcfd6_0001_000000186_0001_1_13_H_._HHH_b1_04220_af2_0001_0000100005_0000001_1_af2pred_0001 (protein)
chain: SSSSSERAREIFELLRRIAELLHEGDDEEARELLEEARRLAEENNNAAAEAVIEFLEKRVESSSS
B9: il10ra_site1_normal_mot_HHH_b2_06090_af2_000000001_0001_1_19_H_._HHH_b1_07022_0001_0000500035_0000001_0 (protein)
chain: SSSSSQEVAELIIEAFRLLLRGDEEEVERLLEELKELAEELNDPALRRLVEILEEAIKAASSSSS
B10: il10ra_site1_sap_16_mot_HHH_b1_05860_000000142_0001_1_19_H_._HHH_b1_00472_af2_0001_0000400017_0000001_0_0001 (protein)
chain: SSSSSTAAHEIYELLKEAAELLADGNPEEAEKVLREAEELAEERGSQVMRFNIEMLLRQVSSSSS
B11: il10ra_site1_sap_12_mot_HHH_b1_08411_af2_000000053_0001_1_20_H_._HHH_b2_05711_0001_0000100001_0000001_0_0001 (protein)
chain: SSSSDLEEEIRELLEEIERLLEEGNHEEAMRLILRALRLIFKLGNEELLQILWELVKKLASSSSS
B12: il10ra_site1_sap_18_mot_HHH_b1_08176_000000188_0001_1_20_H_._HHH_b1_07223_af2_0001_0000200007_0000001_0_0001_af2pred_0001 (protein)
chain: SSSSDEEVREQVREIYEELERLLEEGDREKVEKLLHELVEIALKFDDREAAKAAAEITRLLSSSS
B13: il10ra_site1_sap_18_mot_HHH_b2_00092_000000181_0001_22_39_H_._HHH_b2_07320_0001_0000300035_0000001_0_0001 (protein)
chain: SSSSNQEHHELYELSRRVAELAANGNPEEAREVLEELEKLAEELNDQLMEFIVRLLQRLLHSSSS
B14: il10ra_site1_sap_21_mot_HHH_b2_00076_000000055_0001_40_55_H_._9021b0b5b017d02e5ebf3567f867700e_0001_1_0001_0000300015_0000001_0_0001_af2pred_0001 (protein)
chain: SSSSSEEEVERLLEEAKELLERGNPTEAVKALRRVVKLAAELQNPELLKLVRELSRLIVELSSSS
B15: il10ra_site1_sap_12_mot_HHH_b2_07442_000000239_0001_40_54_H_._HHH_b1_00744_0001_0000200013_0000001_0_0001 (protein)
chain: SSSSNEEYKKVKEAIKRASELWEEGNPEEAERLLEEILKEAEERGDWSLAWALRRALELLKSSSS
B16: il10ra_site1_sap_12_mot_HHH_b2_00943_af2_000000149_0001_1_17_H_._HHH_b1_02919_0001_0000100002_0000001_0_0001_af2pred_0001 (protein)
chain: GPEELEEEVERLLREGNLEEALELLARYAARTQDPEVAHRVIEAYAALSQGNPEEAKKLLEEAVK
B17: il10ra_site1_sap_24_mot_HHH_b1_06816_000000239_0001_1_19_H_._HHH_b2_01980_0001_0000400039_0000002_0_0001 (protein)
chain: SSSSSEERREIYELSRELAEAASDGDKERVEELYEEIRELIEEAGSRMLRFVLEHIYRIAKSSSS
B18: il10ra_site1_sap_22_mot_HHH_b1_06837_000000150_0001_20_37_H_._HHH_b1_03672_0001_0000700018_0000001_0_0001_af2pred_0001 (protein)
chain: SSSSSDEVEEEVRELLEEAEHVEDPREVVRLLSEASKIALENNDPELFRLIIKVAAELARSSSSS
B19: il10ra_site1_sap_22_mot_HHH_b2_00441_000000175_0001_1_18_H_._HHH_b2_03099_0001_0000200023_0000001_0_0001 (protein)
chain: SSSSDEEMLKELVRAAIRLARQAKDEETRRALEWAMRALAEINNDPELRELVEELEEELNSSSSS
B20: il10ra_site1_normal_mot_39ab2cb694c8b9c1dc7e65c0d672c93e_0001_000000036_0001_53_65_H_._HHH_b2_06018_0001_0000200027_0000001_0 (protein)
chain: SSSSSDEEELEELLEELQRLVEEGDRERALRLALEILRLAVRLSDEEALQRLWKLVKELASSSSS
B21: il10ra_site1_normal_mot_HHH_b2_06497_000000202_0001_1_20_H_._HHH_b2_06487_0001_0000300036_0000002_0 (protein)
chain: SSSSTEENERVYELIRRVFELIQQGNPEEAEKLLEEAEEIIEEANNELLEFALRAAKRALKSSSS
B22: il10ra_site1_normal_mot_HHH_b1_04877_af2_000000063_0001_41_55_H_._HHH_b2_05502_0001_0000300013_0000001_0_af2pred_0001 (protein)
chain: SSSSDLEEETERILKEVEELLEEGNEEEAIQLLFKLLRLLVRAGDEELIRKVEKLAVKVLGSSSS
B23: il10ra_site1_sap_22_mot_HHH_b1_08697_af2_000000298_0001_1_18_H_._HHH_b1_04234_0001_0000200008_0000002_0_0001 (protein)
chain: SSSSNEAYEISREALELLRRGNEEEAKRLLEELAEELEEKGDFNFLFSVRAALRAVEALRTSSSS
B24: il10ra_site1_sap_17_mot_HHH_eva_0351_af2_000000113_0001_1_19_H_._HHH_b2_05367_af2_0001_0000500028_0000001_0_0001 (protein)
chain: SSSSSSEEEIKERVEELLEEAEHIEDERKAIEVALEALQIAIQGQDPELLQLVWEVLERVSSSSS
B25: il10ra_site1_normal_mot_HHH_b2_00984_000000042_0001_1_20_H_._HHH_b2_07840_0001_0000300031_0000001_0 (protein)
chain: SSSSSSDLEELVEELEEAVREGDTEKAAQIAQEAARLAFRLSDQEALQELWRLIRLVASSSSSSS
B26: il10ra_site1_normal_mot_HHH_b1_01693_000000146_0001_1_17_H_._HHH_b1_04789_af2_0001_0000100007_0000001_0 (protein)
chain: SSSSDEEEEVEELIKELEEAVKEGDEELVAELYVQAARLAQRINNPELLEKVQRLAVLFLHSSSS
B27: il10ra_site1_normal_mot_HHH_b2_02053_af2_000000006_0001_3_19_H_._HHH_b1_08577_0001_0000200012_0000001_0 (protein)
chain: SSSSSDAEELYRLSREALELRANGNPEEAREVLEEAIELAREAGNFVFLFALEQLLRDLSSSSSS
B28: il10ra_site1_sap_21_mot_674797ffa33fc4f31d963a7257083862_0001_000000202_0001_1_12_H_._HHH_b1_06212_af2_0001_0000100003_0000001_0_0001 (protein)
chain: SSSSDEDEKEVRELLEEAEELREEGDPREAAKVLQEAVRFAIRSQNPELLRLVWEVVKRLGSSSS
B29: il10ra_site1_sap_16_mot_HHH_b1_07527_000000076_0001_1_15_H_._HHH_b1_02879_af2_0001_0000200010_0000001_0_0001 (protein)
chain: SSSSDEEEELEELREELRELAKEGDLERFLRVAMEVLHIAFQLGDSEVFHELMELAKKIDSSSSS
B30: il10ra_site1_normal_mot_HHH_b1_01849_000000247_0001_21_38_H_._ems_3hM_1289_0001_0000100002_0000002_0_af2pred_dldesign_0_af2pred (protein)
chain: SFAEEVLKKAEENIKLAKEKKDPKLEAAAKYLLEDAKVAIAKNNEEALAQVKLATEKLEEVLKES
B31: il10ra_site1_sap_15_mot_5d0551e3c4357af680d60aaa850e4cea_0001_1_af2_000000133_0001_18_33_H_._HHH_b2_04636_0001_0000200014_0000001_0_0001 (protein)
chain: SSSSSSSSEVEEEVRRLLEEAEENPEHANEILLEAIRLAFRHKNEELLRAIWRVLHELSSSSSSS
B32: il10ra_site1_sap_20_mot_HHH_b2_03220_af2_000000223_0001_23_40_H_._HHH_b1_02199_af2_0001_0000500031_0000002_0_0001 (protein)
chain: SSSSSDEWYRLVKELIELLSEGDREKAEEVIERIEELAEEEGDKVLKWLVEFLEELVKESSSSSS
B33: il10ra_site1_sap_12_mot_HHH_b1_06788_af2_000000238_0001_19_36_H_._HHH_b2_07005_af2_0001_0000400017_0000001_0_0001_af2pred_0001 (protein)
chain: SSSSSEEIEKLLEELEEAIKRGDEREASHLILRIAKLIDELGDPELFERLLRIAALVTELGSSSS
B34: il10ra_site1_normal_mot_HHH_b1_00999_000000080_0001_41_55_H_._HHH_b2_05235_0001_0000300014_0000001_0 (protein)
chain: SSSSSSDVEELLEEAQELRERGNPEEAAEVLQRAVRHIFELGDKELLQELWELVRRIGSSSSSSS
B35: il10ra_site1_normal_mot_HHH_b2_05797_000000294_0001_1_19_H_._HHH_b2_06769_0001_0000300028_0000001_0 (protein)
chain: SSSSDEEDREYAEAALRFAKALKEAGDEEAARLLLRLAAEALKRANDEELLEELEELLEELSSSS
B36: il10ra_site1_normal_mot_HHH_b2_05454_000000273_0001_1_18_H_._HHH_b1_07670_0001_0000200029_0000001_0 (protein)
chain: SSSSSEEEERLEELLEELEEVVKEGDKERALRIVEELLRLAFRARDPEIFEKIWELAKRLASSSS
B37: il10ra_site1_normal_mot_HHH_b1_05056_000000217_0001_1_20_H_._HHH_b2_03866_0001_0000200011_0000001_0 (protein)
chain: SSSSSSEEREEVEELLEEAEHVDDLRELARILAEAVRFAYEGKDEEALQLVWEVVRRLFSSSSSS

Target: il10ra, Q13651
Experiment: yeast display titration

Apparent Kd, inactive:
B1 no binding seen
B2 > 1070 nM
B3 no binding seen
B4 no binding seen
B5 no binding seen
B6 no binding seen
B7 no binding seen
B8 no binding seen
B9 no binding seen
B10 no binding seen
B11 no binding seen
B12 > 1410 nM
B13 no binding seen
B14 no binding seen
B15 no binding seen
B16 no binding seen
B17 no binding seen
B18 no binding seen
B19 > 794 nM
B20 no binding seen
B21 > 868 nM
B22 no binding seen
B23 no binding seen
B24 no binding seen
B25 no binding seen
B26 no binding seen
B27 no binding seen
B28 no binding seen
B29 no binding seen
B30 no binding seen
B31 no binding seen
B32 no binding seen
B33 no binding seen
B34 no binding seen
B35 no binding seen
B36 no binding seen
B37 no binding seen

Reprinted at random: 3 entries already listed, in no set order.
Apparent Kd, inactive:
B21 > 868 nM
B10 no binding seen
B11 no binding seen
